Measured values as given in PMC7534336, “New classes of potent heparanase inhibitors from ligand-based virtual screening” (Journal of Enzyme Inhibition and Medicinal Chemistry, 2020).

Amino acid sequences for entries named in this document (tags omitted). Chains listed by the source or under a name are the forms on record and can include a tag or linker.
UniProt Q9Y251, with tags, fused parts or gaps limits assumed: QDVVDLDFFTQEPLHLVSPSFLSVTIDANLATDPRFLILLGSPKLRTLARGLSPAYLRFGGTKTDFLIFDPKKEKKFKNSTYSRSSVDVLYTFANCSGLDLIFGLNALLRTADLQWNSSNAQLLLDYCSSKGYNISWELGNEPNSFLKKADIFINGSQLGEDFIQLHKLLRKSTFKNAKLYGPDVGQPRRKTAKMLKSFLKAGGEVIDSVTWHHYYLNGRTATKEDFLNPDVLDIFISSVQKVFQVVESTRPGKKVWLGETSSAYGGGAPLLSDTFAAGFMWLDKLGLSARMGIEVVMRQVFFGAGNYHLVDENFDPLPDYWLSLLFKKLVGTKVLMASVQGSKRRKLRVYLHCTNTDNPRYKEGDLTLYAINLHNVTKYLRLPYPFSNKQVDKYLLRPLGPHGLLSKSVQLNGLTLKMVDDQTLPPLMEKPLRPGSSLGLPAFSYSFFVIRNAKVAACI

Biological target: human GS3 heparanase (Homo sapiens, UniProt Q9Y251)
Assay: fondaparinux assay of heparanase enzymatic activity (WST-1 colorimetric)
Type: biochemical
Settings: read-out: IC50 (µM) ± SD, heparanase inhibitory activity; fondaparinux assay on human GS3 heparanase; mean of triplicates

With `O=C(O)c1ccc2c(c1)C(=O)N(c1ccc(Oc3ccc(Oc4ccc(N5C(=O)c6ccc(C(=O)O)cc6C5=O)cc4)cc3)cc1)C2=O` the IC50 was < 5 µM and 2.17 µM.

The source holds more than one record for some entries. This is not the full list of results. The source may hold further records. Values that stand side by side differ, and nothing given here explains why; they may come from other doses, times, organisms or constructs than stated.
